The supplement of paper PMC6411743
± gives the standard deviation of the averaged measurements. This is a selection; strong and weak results do not stand in their true shares.

What was measured:
Assay in all cases: NP40-soluble protein abundance relative to vehicle (solubility fold change) (ratio); higher = more soluble protein in presence of AMP-PNP
[1] = target: T1, UniProt Q9UPU7 and related entries
T1 sequence (whole entry): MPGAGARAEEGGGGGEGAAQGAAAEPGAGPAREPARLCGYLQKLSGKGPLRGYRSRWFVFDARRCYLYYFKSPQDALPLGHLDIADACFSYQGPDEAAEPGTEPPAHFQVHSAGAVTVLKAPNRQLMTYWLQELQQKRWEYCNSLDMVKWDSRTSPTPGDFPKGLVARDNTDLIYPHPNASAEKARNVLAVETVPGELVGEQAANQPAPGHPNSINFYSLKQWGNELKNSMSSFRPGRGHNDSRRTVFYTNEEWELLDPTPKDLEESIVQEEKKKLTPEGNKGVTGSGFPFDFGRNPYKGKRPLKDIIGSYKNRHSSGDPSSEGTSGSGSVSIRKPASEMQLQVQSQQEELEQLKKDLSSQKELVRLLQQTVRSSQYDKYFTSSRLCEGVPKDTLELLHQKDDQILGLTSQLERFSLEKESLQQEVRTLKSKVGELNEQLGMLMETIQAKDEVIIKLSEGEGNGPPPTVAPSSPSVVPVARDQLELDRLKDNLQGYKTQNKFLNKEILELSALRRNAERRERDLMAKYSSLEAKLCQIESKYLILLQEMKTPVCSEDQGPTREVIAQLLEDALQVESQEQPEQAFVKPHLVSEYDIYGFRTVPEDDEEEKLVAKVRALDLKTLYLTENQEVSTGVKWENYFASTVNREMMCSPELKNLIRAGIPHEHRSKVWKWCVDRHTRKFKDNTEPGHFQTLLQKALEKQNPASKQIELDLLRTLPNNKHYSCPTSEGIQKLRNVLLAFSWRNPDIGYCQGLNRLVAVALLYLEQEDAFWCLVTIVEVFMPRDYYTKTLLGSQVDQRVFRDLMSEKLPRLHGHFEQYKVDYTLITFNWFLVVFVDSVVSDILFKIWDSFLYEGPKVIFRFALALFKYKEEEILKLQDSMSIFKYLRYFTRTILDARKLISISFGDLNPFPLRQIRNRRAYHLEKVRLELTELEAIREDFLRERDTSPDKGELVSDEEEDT
In short: (§1)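 Values are fold changes against the detergent-processed vehicle, based on vsn-normalised intensities. Jurkat crude lysate was treated at eight concentrations from 0.1 to 10 mM (10 min at room temperature, then 3 min at 37 °C), solubilised with 0.8% NP40 and benzonase, ultracentrifuged and analysed by TMT-labelled LC-MS/MS over three independent experiments.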

[2] = target: T2, UniProt Q9Y232 and related entries
T2 sequence (whole entry): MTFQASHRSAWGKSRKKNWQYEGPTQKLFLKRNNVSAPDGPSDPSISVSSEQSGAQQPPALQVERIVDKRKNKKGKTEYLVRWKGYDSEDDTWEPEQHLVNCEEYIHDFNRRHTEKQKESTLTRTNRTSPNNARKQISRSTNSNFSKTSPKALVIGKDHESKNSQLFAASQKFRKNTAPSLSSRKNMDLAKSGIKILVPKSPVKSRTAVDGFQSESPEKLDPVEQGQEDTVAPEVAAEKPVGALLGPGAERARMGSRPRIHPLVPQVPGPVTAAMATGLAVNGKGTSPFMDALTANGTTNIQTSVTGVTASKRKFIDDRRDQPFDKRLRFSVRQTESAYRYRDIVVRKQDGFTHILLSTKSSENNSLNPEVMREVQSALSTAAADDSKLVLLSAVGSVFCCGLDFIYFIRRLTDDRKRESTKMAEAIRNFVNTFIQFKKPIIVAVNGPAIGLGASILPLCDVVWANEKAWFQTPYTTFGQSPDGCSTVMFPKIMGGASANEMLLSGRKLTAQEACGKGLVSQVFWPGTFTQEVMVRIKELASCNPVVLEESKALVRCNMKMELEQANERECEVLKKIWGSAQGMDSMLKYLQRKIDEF
In short: as §1

[3] = target: T3, UniProt Q9Y2K1 and related entries
T3 sequence (whole entry): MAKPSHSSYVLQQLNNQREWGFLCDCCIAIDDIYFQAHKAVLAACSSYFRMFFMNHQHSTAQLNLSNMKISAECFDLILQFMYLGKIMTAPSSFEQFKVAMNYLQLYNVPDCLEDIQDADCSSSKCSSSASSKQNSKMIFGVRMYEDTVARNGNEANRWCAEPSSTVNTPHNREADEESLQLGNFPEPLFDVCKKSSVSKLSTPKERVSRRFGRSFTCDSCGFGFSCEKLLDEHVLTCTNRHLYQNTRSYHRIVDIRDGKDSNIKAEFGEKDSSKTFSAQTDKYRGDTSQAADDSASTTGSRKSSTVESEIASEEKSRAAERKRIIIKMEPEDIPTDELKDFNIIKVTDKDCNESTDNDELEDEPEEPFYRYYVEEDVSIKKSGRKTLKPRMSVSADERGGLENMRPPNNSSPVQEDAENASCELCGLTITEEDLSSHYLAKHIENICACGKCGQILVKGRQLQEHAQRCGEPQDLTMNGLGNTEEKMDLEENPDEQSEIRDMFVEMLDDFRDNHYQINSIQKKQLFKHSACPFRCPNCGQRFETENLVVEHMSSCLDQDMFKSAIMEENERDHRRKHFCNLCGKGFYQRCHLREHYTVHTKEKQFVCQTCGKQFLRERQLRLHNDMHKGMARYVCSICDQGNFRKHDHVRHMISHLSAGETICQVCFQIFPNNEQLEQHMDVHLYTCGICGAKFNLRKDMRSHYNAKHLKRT
In short: as §1

[4] = target: T4, UniProt Q9Y312 and related entries
T4 sequence (whole entry): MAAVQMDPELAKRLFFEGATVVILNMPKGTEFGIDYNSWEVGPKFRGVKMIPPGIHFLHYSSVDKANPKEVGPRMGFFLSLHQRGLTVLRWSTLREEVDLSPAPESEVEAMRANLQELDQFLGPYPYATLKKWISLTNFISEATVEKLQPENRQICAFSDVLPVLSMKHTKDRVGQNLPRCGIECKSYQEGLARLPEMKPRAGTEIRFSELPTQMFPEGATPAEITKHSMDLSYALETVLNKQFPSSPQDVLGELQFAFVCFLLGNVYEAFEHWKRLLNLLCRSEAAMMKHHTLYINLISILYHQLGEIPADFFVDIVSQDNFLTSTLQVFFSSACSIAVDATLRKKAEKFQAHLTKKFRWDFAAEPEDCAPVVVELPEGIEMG
In short: as §1

[5] = target: T5, UniProt Q9Y394 and related entries
T5 sequence (whole entry): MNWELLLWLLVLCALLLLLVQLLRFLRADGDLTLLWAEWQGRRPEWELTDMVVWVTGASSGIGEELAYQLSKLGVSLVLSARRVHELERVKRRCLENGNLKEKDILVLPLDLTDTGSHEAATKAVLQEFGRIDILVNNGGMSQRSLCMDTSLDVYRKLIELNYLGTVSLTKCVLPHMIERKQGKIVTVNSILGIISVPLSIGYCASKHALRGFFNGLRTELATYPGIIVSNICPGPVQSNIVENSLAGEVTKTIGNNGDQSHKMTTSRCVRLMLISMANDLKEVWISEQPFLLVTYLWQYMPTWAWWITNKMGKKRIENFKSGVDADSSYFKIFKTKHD
In short: as §1

Structure (SMILES): Nc1ncnc2c1ncn2[C@@H]1O[C@H](COP(=O)(O)OP(=O)(O)NP(=O)(O)O)[C@@H](O)[C@H]1O [adenylyl imidodiphosphate]
- NP40-soluble protein abundance ([1]; concentration: 2mM): 1.03 ± 0.046
- NP40-soluble protein abundance ([1]; concentration: 4mM): 0.989 ± 0.038
- NP40-soluble protein abundance ([1]; concentration: 6mM): 1.02 ± 0.042
- NP40-soluble protein abundance ([1]; concentration: 8mM): 0.96 ± 0.033
- NP40-soluble protein abundance ([1]; concentration: 10mM): 1.04 ± 0.098
- NP40-soluble protein abundance ([2]; concentration: 1mM): 0.927 ± 0.055
- NP40-soluble protein abundance ([2]; concentration: 2mM): 0.931 ± 0.016
- NP40-soluble protein abundance ([2]; concentration: 4mM): 0.977 ± 0.031
- NP40-soluble protein abundance ([2]; concentration: 6mM): 0.979 ± 0.025
- NP40-soluble protein abundance ([2]; concentration: 8mM): 1.01 ± 0.081
- NP40-soluble protein abundance ([2]; concentration: 10mM): 0.97 ± 0.037
- NP40-soluble protein abundance ([3]; concentration: 1mM): 1.01 ± 0.053
- NP40-soluble protein abundance ([3]; concentration: 2mM): 1.027 ± 0.0057
- NP40-soluble protein abundance ([3]; concentration: 4mM): 1.04 ± 0.11
- NP40-soluble protein abundance ([3]; concentration: 6mM): 0.983 ± 0.034
- NP40-soluble protein abundance ([3]; concentration: 8mM): 0.993 ± 0.092
- NP40-soluble protein abundance ([3]; concentration: 10mM): 0.996 ± 0.066
- NP40-soluble protein abundance ([4]; concentration: 1mM): 0.97 ± 0.073
- NP40-soluble protein abundance ([4]; concentration: 2mM): 0.948 ± 0.088
- NP40-soluble protein abundance ([4]; concentration: 4mM): 0.943 ± 0.054
- NP40-soluble protein abundance ([4]; concentration: 6mM): 0.893 ± 0.082
- NP40-soluble protein abundance ([4]; concentration: 8mM): 0.885 ± 0.066
- NP40-soluble protein abundance ([4]; concentration: 10mM): 0.889 ± 0.078
- NP40-soluble protein abundance ([5]; concentration: 1mM): 0.976 ± 0.059
- NP40-soluble protein abundance ([5]; concentration: 2mM): 0.947 ± 0.031
- NP40-soluble protein abundance ([5]; concentration: 4mM): 0.943 ± 0.063
- NP40-soluble protein abundance ([5]; concentration: 6mM): 0.942 ± 0.026
- NP40-soluble protein abundance ([5]; concentration: 8mM): 0.976 ± 0.044
- NP40-soluble protein abundance ([5]; concentration: 10mM): 0.948 ± 0.038
